Test results reported in PubChem BioAssay AID1508600 (Functional Genomics Laboratory (NCATS/FGL), 2020).
Among all 53,000 sequences or so, about 3,700 (7%) were called active.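 Rule for the calls: active = gene knockdowns whose robust z-score for IL-1 alpha signal is at least 2 or at most -2, so actives lie on both sides; inactive = the rest.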 This is one part of the list.

experiment: Components of the Cytosolic LPS Sensing Pathway: Gene Identification via Genome-wide siRNA Screen; settings: RAW264.7 macrophages, IL-1a HTRF, actives lie on both sides, screened at 100 nM (by protocol), cells primed 5 h with Pam3CSK4 first;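 note: robust z of the log signal after scaling to non-targeting control siRNA wells of the plate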
Summary of the method: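 Knockdown: 100 nM siRNA, 48h, RAW264.7. Stimulation: Pam3CSK4 5 h, then LipidA via TransIT-TKO 24 h. Output: supernatant IL-1a HTRF, negative-control-normalized, log robust z-score; viability by CellTiter-Glo.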

Sequence	z-score
GCCUUGAUACAGAACAUGATT against Btbd16	inactive: -0.254
GGCACCUGAGGGAACUAAGTT against Atp1a2	inactive: 1.48
CGUAUCUGUUCAGCUGUACTT against Trappc9	inactive: -0.067
CCUCUCAGAUUUUCACAUATT against Zfp599	inactive: 1.36
GGACUUGCUAAGAGACCAATT against Cntn2	active: 4.74
GGAACCAUCUUCAACCAACTT against Eme1	inactive: -1.44
GCCAACCAUCAGUUUAUACTT against Mboat1	inactive: -0.31
GGGAUUCUUUUUGUGGAAATT against Trim62	inactive: 0.636
GGAAUAAGGCGAGUUGGAATT against Serbp1	inactive: 0.493
GGAUUAGGAAUCACAGUAGTT against Fam78a	inactive: 0.675
GCCCGGAAUCUGUCUAAACTT against Btg2	inactive: 1.24
GAAAGUGUUCAAUAUACUGTT against Klra10	inactive: 0.4
CUACUUCACUUGCAUAACUTT against Dnajc2	inactive: -0.564
GUGUGCUUGAUGGAGACCATT against Riiad1	active: 2.25
GGAGCUGAGAACUAUUAGATT against Abr	inactive: -0.238
GCAUGCAUGUAUUUUUUAGTT against Itpripl2	inactive: 0.913
GGACAAUGCUAAUGAGACCTT against Gcsam	inactive: -0.176
GCAUGAGGAUUGCACUAGGTT against Shbg	inactive: -0.742
GGAUGUCAAGGACACAGUATT against Olfr73	inactive: -1.04
GCCGAUCUAAGAAAAACAATT against Tro	inactive: -0.401
GGGAUCAAAUUACACCUGUTT against Phox2a	inactive: -0.499
CCCACAUCGAUGGUUAGCUTT against Cep128	inactive: 0.977
GGCUCCUCAAAGGUCAAGUTT against Mybpc3	inactive: 0.986

Sequence	z-score
CCACAUGAUCCUAACUUUGTT against Pqbp1	inactive: -0.157
GCAAUGUCUUCAAUGAUCATT against Ccdc158	inactive: -0.251
GGCUAUGAAUAAACUUUUCTT against Olfr1016	inactive: 0.429
GGGAUCACAGAUCUCUCUGTT against Cnksr3	inactive: 1.1
GGAAAGACUACAAGAAUUUTT against Syce2	inactive: 0.711
GGAGGUGCAUUAUAAGAAUTT against Fhl1	inactive: 0.686
CGAAGACGGUGACUACUAUTT against Bicd2	inactive: 1.67
GCCCUUUCGCCUAUGGUUUTT against Tedc1	inactive: 0.931
GCUAUUGAGUUAUCGUUGCTT against Stam2	inactive: 0.715
CGGGCAGUACUAUGAUUUGTT against Ppp1cc	active: 2.09
GGAGAAAUCGGAUGUGAAUTT against Smtnl1	inactive: 0.214
GGUUUCGUCUUGAUAUCUATT against Trpc1	inactive: -0.417
CCGGACUCAGGGUUAAAGUTT against Apoc4	inactive: 0.952
GGUUGUUUAUACCUGUGAUTT against Cfh	inactive: -0.292
GGGAAAUGACAAUUGAAAGTT against Tab3	inactive: 1.18
CCUUAUUGACAGACGAGAGTT against Mob1b	inactive: 0.0129
GGCCGAUUCCAUUGUACAGTT against Fam177a	active: 3.54
GCUGUCGUUGAAGGCAUUGTT against Olfr317	inactive: -0.828
GGGACAUUUCUGUAUUGAGTT against Psg21	inactive: -0.446
GGUAAAAAAUGCUUUCAACTT against Olfr1008	inactive: 0.696
GGAGAAGUUUAAGGAGAUUTT against Dnajb5	inactive: 1.54
CGAUUACUUGGAAAACCAATT against Ifne	inactive: -1.21
CGGACUAUUGGAGACCAACTT against Gpsm2	active: 2.16

Shown comma-delimited: entries from further up
Sequence,z-score
GGACAAUGCUAAUGAGACCTT against Gcsam,inactive: -0.176
GGGAUCAAAUUACACCUGUTT against Phox2a,inactive: -0.499
GCUAUUGAGUUAUCGUUGCTT against Stam2,inactive: 0.715
CCGGACUCAGGGUUAAAGUTT against Apoc4,inactive: 0.952

The list continues:

Sequence	z-score
GCCUUAAUACUCACCAGGGTT against Zscan2	inactive: 0.702
GCAAGACUUGCUGAUAGAGTT against Cyp2j6	inactive: 1.44
GGGUUAAAUGGUUUUAACATT against E2f7	inactive: 0.505
CCCAUUAAAAAUCGUUCUGTT against Rcl1	inactive: 0.0355
GCUGGCUUCUAUACUUCCCTT against Smgc	inactive: 0.0298
ACACUUGCAUCAUCUUUGCTT against Olfr740	inactive: 1.42
GGAAUUAUGCUUCCAUCAUTT against Mycl	inactive: -0.225
GGUCAACAUUAAAAUACUGTT against Map2k4	inactive: -0.0649
GGAGUACGAGGAGAUUAUGTT against Ubtf	inactive: 0.844
GCGGCAAUUCAAAUGAGUCTT against Rnf14	inactive: 1.2
GGACUUCCUAUGAAGACAUTT against Neu4	inactive: 0.374
GCUAUCAAUACCUCAGUUATT against Syt2	inactive: 0.369
GACCUGUUUUGUCUUUUGCTT against Ms4a4c	inactive: 1.34
CGGGAUAUCAUCUGAAUAATT against Disp1	inactive: 0.19
CCAGCUUCAUGCGUUUAAATT against Stx16	inactive: 1.4
GGAAUCAUCUGAACACACATT against Ctcf	active: -2.18
GCCUUCUGGCAAGAAUCUUTT against Krtap9-3	inactive: 1.21
GGCUCCUCGGUUUAAAGGUTT against Usp45	inactive: -0.217
GGCCGAAGAAGGAGAAUUGTT against Gdap10	inactive: 1.29
GCGACGGAAGUCUUUAUUATT against Nostrin	inactive: -0.163
GGAACUAUACCAAAGGCAATT against Cfap65	inactive: -0.198
GGAACGGAUACGGUUUCAUTT against Ybx1	inactive: 0.902
GGGUCUUGAAUACAGAGAGTT against Qsox1	inactive: -0.838
